Reference: paper PMC5996148
This is one part of the list. For some assays here: Construct or isoform of the protein are uncertain.

Chains of the proteins cited; added tags and fusions are not shown.
UniProt Q9NWU2, whole entry: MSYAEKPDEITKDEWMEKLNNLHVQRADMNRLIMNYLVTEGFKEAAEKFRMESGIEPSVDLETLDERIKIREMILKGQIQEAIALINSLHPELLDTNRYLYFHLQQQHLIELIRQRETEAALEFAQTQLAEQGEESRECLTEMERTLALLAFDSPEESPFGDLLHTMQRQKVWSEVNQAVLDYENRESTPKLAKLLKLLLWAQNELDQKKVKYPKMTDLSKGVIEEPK

How the values were obtained:
Experiment in all cases: protein microarray (ProtoArray v5.0), streptavidin-Alexa Fluor 647
Conditions in all cases: 3'-biotin; 20 mM Tris (pH 7.5), 5 mM MgCl2, 100 mM KCl, 0.1% Tween-20, A/T-rich and random oligonucleotide blockers; temperature not stated; high values mean tight binding
C1orf80 (human) = system: C1orf80 (human)
C1orf90 (human) = system: C1orf90 (human)
C1orf91 (human) = system: C1orf91 (human)
C1orf94 (human) = system: C1orf94 (human)
C20orf11 = C20orf11 (UniProt Q9NWU2)
C20orf114 (human) = system: C20orf114 (human)
C20orf121 (human) = system: C20orf121 (human)
C20orf141 (human) = system: C20orf141 (human)
C20orf142 (human) = system: C20orf142 (human)
C20orf149 (human) = system: C20orf149 (human)
C20orf160 (human) = system: C20orf160 (human)
C20orf18 (human) = system: C20orf18 (human)
C20orf3 (human) = system: C20orf3 (human)
C20orf7 (human) = system: C20orf7 (human)
C20orf70 (human) = system: C20orf70 (human)
C21orf2 (human) = system: C21orf2 (human)
C21orf33 (human) = system: C21orf33 (human)
C21orf51 (human) = system: C21orf51 (human)
C21orf7 (human) = system: C21orf7 (human)
C21orf84 (human) = system: C21orf84 (human)

GGGAGGCTGAGGCAGG [G4-1 biotinylated (PQS2)]
binding signal (C1orf80 (human)): -0.295 z-score
binding signal (C1orf90 (human)): -0.299 z-score
binding signal (C1orf91 (human)): -0.351 z-score
binding signal (C1orf94 (human)): -0.277 z-score
binding signal (C20orf11): -0.338 z-score
binding signal (C20orf114 (human)): -0.354 z-score
binding signal (C20orf121 (human)): -0.294 z-score
binding signal (C20orf141 (human)): -0.331 z-score
binding signal (C20orf142 (human)): -0.353 z-score
binding signal (C20orf149 (human)): -0.302 z-score
binding signal (C20orf160 (human)): -0.355 z-score
binding signal (C20orf18 (human)): -0.31 z-score
binding signal (C20orf3 (human)): -0.348 z-score
binding signal (C20orf7 (human)): -0.297 z-score
binding signal (C20orf70 (human)): -0.34 z-score
binding signal (C21orf2 (human)): -0.325 z-score
binding signal (C21orf33 (human)): -0.326 z-score
binding signal (C21orf51 (human)): -0.33 z-score
binding signal (C21orf7 (human)): -0.344 z-score
binding signal (C21orf84 (human)): -0.327 z-score
